Laboratory results: PubChem BioAssay AID1347423 (Functional Genomics Laboratory (NCATS/FGL), 2020)
Out of some 52,000 sequences screened, about 210 (0.4%) were called active.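 The calls were made as follows: active = gene whose silencing raises cell survival under the drug, median off-target-corrected z-score across its silencing RNAs 2 or more; inactive = the rest.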 The list shows a part of the results.

test: Resistance to Poly (ADP-Ribose) Polymerase inhibitor: Gene Identification via Genome-wide siRNA Screen; settings: mouse BRCA2 R2336H ES cells, olaparib, CellTiter-Glo viability; active compounds read high
How it was run: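 Mouse BRCA2 R2336H ES cells were reverse-transfected with siRNA (20 nM final), treated at 48 h with 500 nM olaparib, and read by CellTiter-Glo after 72 h. Scores: MAD-based z per siRNA, median per gene, seed off-target correction.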

| Sequence | z-score |
| --- | --- |
| GCGUAAAUAAGUGUCAGAATT against Emp2 | inactive: -0.0995 |
| GACAAGAAGCAGAUGACUGTT against Olig2 | inactive: -0.352 |
| GGCCAAACAGCCAAAUUCUTT against Rps23 | inactive: -2.16 |
| GGAAUGAUUUUUGUUUGCUTT against Sf3b3 | inactive: 2.2 |
| GGGAAAACACAAAGAAGAATT against Angpt1 | inactive: -0.869 |
| GGAUUUUGAAGAGGAGUCGTT against Mpp3 | inactive: 0.396 |
| GGAAUAUGAAGCAUAAGUGTT against 1810011O10Rik | inactive: 0.322 |
| GGCUUCGACGUGACUCAUCTT against Tcte2 | inactive: 0.0514 |
| GGAAUUCAUCCACAUACUGTT against Actr10 | inactive: -1.38 |
| CCUCUACAUAUUAUGGAAATT against Dpp9 | inactive: -0.0115 |
| GUCAAGCUGGCCAAACAUATT against Rps19 | inactive: -3.27 |
| GGAAGCACGUUGGAAGGAUTT against Olfr845 | inactive: -0.171 |
| CCAAUAUGAGACCAUCAUUTT against Sv2b | inactive: -0.966 |
| GCCCUUUGACAAUUUGUUUTT against 1300002K09Rik | inactive: 0.808 |
| CGGGUGCUAAAAUGUCUAUTT against Khdrbs2 | inactive: -0.629 |
| GGCAUCUAUGACAAGUUUGTT against 1700014P03Rik | inactive: 1.19 |
| GGCAAACUUAUCUUCUUCUTT against Ahsa1 | inactive: 0.458 |
| GCUCAUUCGGACCAAAACUTT against Card4 | inactive: 0.211 |
| GGUUCUGAGUCUUAUCUUCTT against Sult5a1 | inactive: 0.609 |
| GGAUUCAGAAGGCCUCAGUTT against Olfr399 | inactive: 0.794 |
| CCUGGAGUUAGUUUGACAGTT against Atf4 | inactive: -2.52 |
| GGUUCAAGGGCCAGAUCCUTT against Rpl32 | inactive: -2.81 |
| GCAGCCGAUUAUCAGCGAATT against Cyp7b1 | inactive: -1.06 |
| GGAGACAUCAACAAGUUGATT against A030013D21 | inactive: 0.585 |
| GCUCGAGCUUUAUUUAAAUTT against Adarb1 | inactive: 0.784 |
| GCCACUAAAUCCUGUUUCCTT against 1810015A11Rik | inactive: -0.28 |

| Sequence | z-score |
| --- | --- |
| GCGACACCUUUUUUUGGGATT against Ppp1r3c | inactive: -0.174 |
| GCUUCGAAGCAACAUCCGATT against Rims3 | inactive: 0.688 |
| GGAGUCAGACUGAUGUCAUTT against Cdipt | inactive: 1.08 |
| GGAAAGAGUUCAACAGGGATT against Ian1 | inactive: -1.01 |
| GGAGUUUCCACAAGACCUGTT against Csrp3 | inactive: 0.897 |
| CCAGUUGGAAAUAUGACGATT against 2510002A14Rik | inactive: 0.99 |
| GGAGCAUGAGUAUUACAAUTT against Pi16 | inactive: 0.279 |
| CCAAUGUUGGCAUUAUGUUTT against Fah | inactive: 0.645 |
| GGUGGAUACAGUGUACACUTT against Cldn13 | inactive: -0.634 |
| GGAUUGUCAAUUCUUCCCUTT against 9130020L07Rik | inactive: 0.732 |
| GGAGAAGAUUGUAAAGGGCTT against Lig3 | inactive: -2.01 |
| GCUCUUUUAACGUAAUGGGTT against Cpe | inactive: 3 |
| GCUCAGUUCUGUCACUUGCTT against Rs1h | inactive: -0.466 |
| GCAGACCCAAAAGCAUUAATT against A930014K01Rik | inactive: 0.0472 |
| GCGACUCAUUAAGGAUGUGTT against MGI:1923902 | inactive: 1.82 |
| GCCAAAAUUUCUCUAGCAUTT against Olfr1445 | inactive: 2.23 |
| GGAGAUUGACAUUAGCAACTT against Rps6ka2 | inactive: 0.871 |
| GGUUCACGAAGAACAUAAATT against MGC27863 | inactive: -0.057 |
| GCUUCCUAACUUGAAAGCATT against Etos1 | inactive: 0.157 |
| GGAUCUCUCUUUCCUCCUCTT against Gli | inactive: 2.09 |
| CCGCUUUUCCUGCCUCUGUTT against Egfl9 | inactive: -1.78 |
| CGAAGGAGAUUCCGAUAAATT against Arl12 | inactive: 0.472 |
| GCUAGGACUACAGCUGGGATT against 6530403A03Rik | inactive: 2.26 |
| CGACACUCCGAUCGUCAAGTT against Grm4 | inactive: -0.336 |
| GGCUUAAAGGUCCUGUGCUTT against Ighmbp2 | inactive: 0.484 |
| GGAGAGCAAGGAGAACCAATT against Itga7 | inactive: -1.21 |

Quoted from the listing (two entries):

| Sequence | z-score |
| --- | --- |
| GGUUCACGAAGAACAUAAATT against MGC27863 | inactive: -0.057 |
| GCUUCCUAACUUGAAAGCATT against Etos1 | inactive: 0.157 |

Some of the entries so far, comma-delimited.
Sequence,z-score
CCUCUACAUAUUAUGGAAATT against Dpp9,inactive: -0.0115
GUCAAGCUGGCCAAACAUATT against Rps19,inactive: -3.27

Additional entries follow:

| Sequence | z-score |
| --- | --- |
| GGAAGAUGUCCAAACCCGCTT against Tm4sf7 | inactive: 0.167 |
| CGAUGGCUUGGUUCCAUUUTT against Eapa2 | inactive: -1.37 |
| GACAUUGGGACCUUCGAGATT against 1500041B16Rik | inactive: -0.687 |
| GGGACGAGAUUGAAGAAGATT against Snx2 | inactive: -2.04 |
| CCGUUUAUGACAAUGGCGUTT against Tub | inactive: -0.103 |
| CGAAAUCCUAGUUUCGUCCTT against 2210013K02Rik | inactive: 2.24 |
| GGUAUCUCCUGUGAACGACTT against 6330407G04Rik | inactive: -0.337 |
| GGAUCCAUAUGCUAAUCUATT against AV312086 | inactive: -0.853 |
| GGAGAAUAUAGCAGGAGGUTT against BC049697 | inactive: 0.85 |
| GCAGGGAUUUUAACCAAUATT against 2610204M08Rik | inactive: -0.0565 |
| GGUAAACCUUUCUACCUUATT against Il8rb | inactive: -0.206 |
| CCCGGAAAAUUGUAUUGGATT against Klhl6 | inactive: -0.704 |
| GGAGGAAAGUAUGAAGAAATT against Cyp2j9 | inactive: 0.56 |
| GGCUGUGACUCUGGAUUUGTT against Bdh | inactive: -0.875 |
| GGCCAAGAAUGAUCGUUCUTT against Gabrb3 | inactive: -0.525 |
| GGAUAGAGCACAGAUCCAGTT against Siat8e | inactive: -1.03 |
| GGCCUUUGUAGUAUCCCAGTT against 2310041H06Rik | inactive: 3.12 |
| GGAAUGACAAUUGUAAACUTT against Mphosph6 | inactive: 0.41 |
| GCUCCCAUUAUCAUUCAAATT against 2810009O15Rik | inactive: 0.414 |
| GCCUCCAAUAAGAUUAUAUTT against Ceacam10 | inactive: -1.17 |
| GGAGAUCCUCAAGGAGCAGTT against Park7 | inactive: 1.9 |
| GGACGUGAAAGCUUUGGUUTT against Nrip3 | inactive: 0.209 |
| GGAACAGCAAAAAUAAGACTT against V1re5 | inactive: 0.927 |
| GGAAGCCUUGUGUGCACAUTT against Gng10 | inactive: 0.39 |
| GGCCGAAGAAUUCAUCUUUTT against C85492 | inactive: 0.769 |
| GGGCAAACAACAUCGAUGGTT against 2610014F08Rik | inactive: -0.356 |

| Sequence | z-score |
| --- | --- |
| GGGCAGAAAAUUGACUUAATT against Sdccag1 | inactive: -1.8 |
| GCUGGUUCUGUUUGUUAUUTT against Olfr1014 | inactive: 0.484 |
| GGAGAUCACCAAAUUUGAGTT against Eef1d | inactive: -0.69 |
| GGGACUCAGUGUUUAUUGATT against B230114P05Rik | inactive: 1.34 |
| CGUAUUUAUGUUCUGUUGUTT against Sox8 | inactive: 0.56 |
| GGAGGAAAGUUGUAUUUGATT against Nudt7 | inactive: 0.0407 |
| GGACUUCUACGUGAUGGAGTT against Pip5k1c | inactive: 1.51 |
| GCUGAUCGAGUAGCUAUUATT against Cse1l | inactive: -2.75 |
| CCUGUUUGAGAUAUUUGAATT against Npnt | inactive: -0.653 |
| GGAGAUUACGAGAUGUCAATT against BC031781 | inactive: -0.111 |
| GCUUAAAACUUCACGAGGATT against Ppp1r3c | inactive: -1.12 |
| GGAGUUCAAGAGCACAAAUTT against Atp4a | inactive: -1.34 |
| GGCAGAGAAUGGAAGAGAUTT against Ptma | inactive: -1.27 |
| CCCGGAUGAUGGAGAUAUUTT against 2610034E18Rik | inactive: -1.14 |
| GGAUGUGCAAGAGUAUCUCTT against Fbp2 | inactive: 1.05 |
| GGGAUCAUGGAUUUCUUCCTT against BC025600 | inactive: 0.237 |
| GGCGACAUCAUGCUAAUGATT against Fgfbp1 | inactive: -1.51 |
| GGACAUAGUGAUGCUUCAGTT against MGC36320 | inactive: 1.95 |
| GGUAAUACAUUCCUCUAACTT against Zfyve16 | inactive: 0.179 |
| AAGGUUUGGAAACUCAUUGTT against Zfp50 | inactive: 0.0761 |
| CCUAAACAUGCUGUCCCUATT against Apoc3 | inactive: -2.6 |
| GGAAAUUUGCCUAUUGAAATT against Il6 | inactive: -0.17 |
| GGAAUAAGUCCUAUGAAUCTT against 3830421F13Rik | inactive: 0.848 |
| CGGAGCGUGCUUACCAAAATT against Rps11 | inactive: -2.58 |
| GGUGGUGGUGGUGAUUUUGTT against Mad2l2 | inactive: 1.66 |
| GGCCUGUUUAGUCUAUAUATT against Lztfl1 | inactive: -0.215 |

Random excerpt: 4 entries already listed

| Sequence | z-score |
| --- | --- |
| GGGAUCAUGGAUUUCUUCCTT against BC025600 | inactive: 0.237 |
| GGCGACAUCAUGCUAAUGATT against Fgfbp1 | inactive: -1.51 |
| GCUUAAAACUUCACGAGGATT against Ppp1r3c | inactive: -1.12 |
| GCUGGUUCUGUUUGUUAUUTT against Olfr1014 | inactive: 0.484 |
